Test results published in article PMC3555845.
These are yes or no findings as the source states them, for the method shown. In cells and extracts the contact can be indirect. Some binding calls cover weakened binding; strength is not graded here.

Amino acid sequences for entries named in this document (tags omitted).
UniProt P08100: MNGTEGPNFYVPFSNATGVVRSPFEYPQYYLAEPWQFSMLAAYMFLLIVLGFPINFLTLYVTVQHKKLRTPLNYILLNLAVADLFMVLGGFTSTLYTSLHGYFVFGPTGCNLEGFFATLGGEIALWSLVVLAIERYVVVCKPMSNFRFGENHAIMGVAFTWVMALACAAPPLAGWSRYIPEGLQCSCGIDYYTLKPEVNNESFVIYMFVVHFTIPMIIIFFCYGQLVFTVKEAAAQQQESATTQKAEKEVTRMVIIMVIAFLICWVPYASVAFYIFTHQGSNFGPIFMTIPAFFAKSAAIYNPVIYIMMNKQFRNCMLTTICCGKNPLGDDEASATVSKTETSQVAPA

Molecular target: T1, USH1G protein SANS (scaffold protein containing ankyrin repeats and SAM domain) (UniProt Q495M9)
T1 sequence: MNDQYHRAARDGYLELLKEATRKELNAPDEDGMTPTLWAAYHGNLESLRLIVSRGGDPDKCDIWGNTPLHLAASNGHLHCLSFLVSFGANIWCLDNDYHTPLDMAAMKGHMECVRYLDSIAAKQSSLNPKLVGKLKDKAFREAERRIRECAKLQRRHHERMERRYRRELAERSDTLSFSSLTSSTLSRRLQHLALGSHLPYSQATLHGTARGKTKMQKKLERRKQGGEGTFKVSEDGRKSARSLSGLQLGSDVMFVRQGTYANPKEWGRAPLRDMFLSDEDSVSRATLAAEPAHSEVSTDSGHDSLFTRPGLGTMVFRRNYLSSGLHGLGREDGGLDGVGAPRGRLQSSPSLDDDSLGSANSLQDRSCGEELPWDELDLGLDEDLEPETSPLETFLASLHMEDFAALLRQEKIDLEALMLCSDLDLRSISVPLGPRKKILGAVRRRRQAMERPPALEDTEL
Assay: co-IP; co-immunoprecipitation; bait and source not told

## opsin (from UniProt P08100 1-348) (receptor)
  binding: binds
